Data from the supplement of paper PMC10849652.
This is one part of the list.

The chains behind the UniProt entries cited, without tags or fusion partners. Where a name states a change or a piece, a line headed by the entry shows the natural chain unless it says otherwise.
UniProt Q9BQC3: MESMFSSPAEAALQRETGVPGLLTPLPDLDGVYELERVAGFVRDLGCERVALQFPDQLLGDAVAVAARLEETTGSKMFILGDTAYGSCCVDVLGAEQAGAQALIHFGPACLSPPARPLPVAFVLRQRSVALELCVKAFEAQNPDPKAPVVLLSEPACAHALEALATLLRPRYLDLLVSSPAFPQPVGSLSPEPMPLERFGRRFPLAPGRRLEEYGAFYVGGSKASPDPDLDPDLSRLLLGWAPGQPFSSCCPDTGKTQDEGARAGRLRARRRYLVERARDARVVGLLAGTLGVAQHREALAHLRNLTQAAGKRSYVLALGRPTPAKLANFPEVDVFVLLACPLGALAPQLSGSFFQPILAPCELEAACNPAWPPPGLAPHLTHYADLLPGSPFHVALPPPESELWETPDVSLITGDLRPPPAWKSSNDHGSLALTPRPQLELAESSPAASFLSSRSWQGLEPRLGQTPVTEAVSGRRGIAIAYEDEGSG
UniProt O75521: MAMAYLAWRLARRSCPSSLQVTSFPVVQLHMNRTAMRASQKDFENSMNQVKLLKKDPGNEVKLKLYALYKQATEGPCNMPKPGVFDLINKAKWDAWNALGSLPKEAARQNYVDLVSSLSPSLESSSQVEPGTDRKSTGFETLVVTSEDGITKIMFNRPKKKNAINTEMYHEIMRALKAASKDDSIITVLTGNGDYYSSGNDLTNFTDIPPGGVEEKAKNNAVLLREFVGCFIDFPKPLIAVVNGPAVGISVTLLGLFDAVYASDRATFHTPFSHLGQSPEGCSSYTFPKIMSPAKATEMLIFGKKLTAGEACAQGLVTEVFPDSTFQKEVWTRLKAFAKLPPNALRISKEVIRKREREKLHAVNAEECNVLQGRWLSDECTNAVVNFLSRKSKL
UniProt O00559: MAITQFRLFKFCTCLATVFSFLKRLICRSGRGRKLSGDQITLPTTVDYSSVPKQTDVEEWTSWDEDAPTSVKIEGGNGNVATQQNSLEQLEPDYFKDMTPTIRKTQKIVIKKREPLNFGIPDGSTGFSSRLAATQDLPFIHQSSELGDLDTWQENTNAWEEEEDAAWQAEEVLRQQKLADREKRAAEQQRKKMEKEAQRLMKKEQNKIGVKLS
UniProt P55039: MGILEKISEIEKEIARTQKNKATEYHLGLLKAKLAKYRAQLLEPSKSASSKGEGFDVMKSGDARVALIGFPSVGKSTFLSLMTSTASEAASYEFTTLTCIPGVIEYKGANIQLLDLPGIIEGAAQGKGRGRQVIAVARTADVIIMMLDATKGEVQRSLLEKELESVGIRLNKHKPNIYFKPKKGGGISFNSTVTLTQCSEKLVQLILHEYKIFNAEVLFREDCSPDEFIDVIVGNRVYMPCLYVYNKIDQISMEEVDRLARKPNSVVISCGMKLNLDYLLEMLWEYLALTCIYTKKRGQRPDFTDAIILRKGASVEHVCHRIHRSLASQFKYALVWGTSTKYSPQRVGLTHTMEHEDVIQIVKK
UniProt Q9Y2G8: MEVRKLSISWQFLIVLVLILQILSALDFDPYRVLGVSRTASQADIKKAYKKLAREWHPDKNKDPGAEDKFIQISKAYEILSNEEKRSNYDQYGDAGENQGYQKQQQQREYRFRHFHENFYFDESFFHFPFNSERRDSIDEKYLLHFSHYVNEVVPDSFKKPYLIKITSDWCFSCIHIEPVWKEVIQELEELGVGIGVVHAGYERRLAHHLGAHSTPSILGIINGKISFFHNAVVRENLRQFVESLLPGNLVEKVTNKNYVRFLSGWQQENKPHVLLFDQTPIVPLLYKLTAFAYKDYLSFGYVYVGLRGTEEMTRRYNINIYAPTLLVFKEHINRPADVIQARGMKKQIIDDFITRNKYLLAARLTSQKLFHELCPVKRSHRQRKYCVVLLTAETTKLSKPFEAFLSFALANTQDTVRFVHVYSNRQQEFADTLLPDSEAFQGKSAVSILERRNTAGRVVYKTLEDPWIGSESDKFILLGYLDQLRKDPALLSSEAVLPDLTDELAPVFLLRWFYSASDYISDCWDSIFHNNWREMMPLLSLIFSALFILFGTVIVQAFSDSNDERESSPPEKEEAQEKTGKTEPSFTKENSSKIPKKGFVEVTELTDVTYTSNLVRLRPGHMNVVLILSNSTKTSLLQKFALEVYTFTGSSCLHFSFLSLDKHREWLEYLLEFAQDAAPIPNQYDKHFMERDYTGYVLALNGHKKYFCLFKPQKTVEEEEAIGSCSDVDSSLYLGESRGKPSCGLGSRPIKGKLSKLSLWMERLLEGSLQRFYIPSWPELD
UniProt Q5JSL3: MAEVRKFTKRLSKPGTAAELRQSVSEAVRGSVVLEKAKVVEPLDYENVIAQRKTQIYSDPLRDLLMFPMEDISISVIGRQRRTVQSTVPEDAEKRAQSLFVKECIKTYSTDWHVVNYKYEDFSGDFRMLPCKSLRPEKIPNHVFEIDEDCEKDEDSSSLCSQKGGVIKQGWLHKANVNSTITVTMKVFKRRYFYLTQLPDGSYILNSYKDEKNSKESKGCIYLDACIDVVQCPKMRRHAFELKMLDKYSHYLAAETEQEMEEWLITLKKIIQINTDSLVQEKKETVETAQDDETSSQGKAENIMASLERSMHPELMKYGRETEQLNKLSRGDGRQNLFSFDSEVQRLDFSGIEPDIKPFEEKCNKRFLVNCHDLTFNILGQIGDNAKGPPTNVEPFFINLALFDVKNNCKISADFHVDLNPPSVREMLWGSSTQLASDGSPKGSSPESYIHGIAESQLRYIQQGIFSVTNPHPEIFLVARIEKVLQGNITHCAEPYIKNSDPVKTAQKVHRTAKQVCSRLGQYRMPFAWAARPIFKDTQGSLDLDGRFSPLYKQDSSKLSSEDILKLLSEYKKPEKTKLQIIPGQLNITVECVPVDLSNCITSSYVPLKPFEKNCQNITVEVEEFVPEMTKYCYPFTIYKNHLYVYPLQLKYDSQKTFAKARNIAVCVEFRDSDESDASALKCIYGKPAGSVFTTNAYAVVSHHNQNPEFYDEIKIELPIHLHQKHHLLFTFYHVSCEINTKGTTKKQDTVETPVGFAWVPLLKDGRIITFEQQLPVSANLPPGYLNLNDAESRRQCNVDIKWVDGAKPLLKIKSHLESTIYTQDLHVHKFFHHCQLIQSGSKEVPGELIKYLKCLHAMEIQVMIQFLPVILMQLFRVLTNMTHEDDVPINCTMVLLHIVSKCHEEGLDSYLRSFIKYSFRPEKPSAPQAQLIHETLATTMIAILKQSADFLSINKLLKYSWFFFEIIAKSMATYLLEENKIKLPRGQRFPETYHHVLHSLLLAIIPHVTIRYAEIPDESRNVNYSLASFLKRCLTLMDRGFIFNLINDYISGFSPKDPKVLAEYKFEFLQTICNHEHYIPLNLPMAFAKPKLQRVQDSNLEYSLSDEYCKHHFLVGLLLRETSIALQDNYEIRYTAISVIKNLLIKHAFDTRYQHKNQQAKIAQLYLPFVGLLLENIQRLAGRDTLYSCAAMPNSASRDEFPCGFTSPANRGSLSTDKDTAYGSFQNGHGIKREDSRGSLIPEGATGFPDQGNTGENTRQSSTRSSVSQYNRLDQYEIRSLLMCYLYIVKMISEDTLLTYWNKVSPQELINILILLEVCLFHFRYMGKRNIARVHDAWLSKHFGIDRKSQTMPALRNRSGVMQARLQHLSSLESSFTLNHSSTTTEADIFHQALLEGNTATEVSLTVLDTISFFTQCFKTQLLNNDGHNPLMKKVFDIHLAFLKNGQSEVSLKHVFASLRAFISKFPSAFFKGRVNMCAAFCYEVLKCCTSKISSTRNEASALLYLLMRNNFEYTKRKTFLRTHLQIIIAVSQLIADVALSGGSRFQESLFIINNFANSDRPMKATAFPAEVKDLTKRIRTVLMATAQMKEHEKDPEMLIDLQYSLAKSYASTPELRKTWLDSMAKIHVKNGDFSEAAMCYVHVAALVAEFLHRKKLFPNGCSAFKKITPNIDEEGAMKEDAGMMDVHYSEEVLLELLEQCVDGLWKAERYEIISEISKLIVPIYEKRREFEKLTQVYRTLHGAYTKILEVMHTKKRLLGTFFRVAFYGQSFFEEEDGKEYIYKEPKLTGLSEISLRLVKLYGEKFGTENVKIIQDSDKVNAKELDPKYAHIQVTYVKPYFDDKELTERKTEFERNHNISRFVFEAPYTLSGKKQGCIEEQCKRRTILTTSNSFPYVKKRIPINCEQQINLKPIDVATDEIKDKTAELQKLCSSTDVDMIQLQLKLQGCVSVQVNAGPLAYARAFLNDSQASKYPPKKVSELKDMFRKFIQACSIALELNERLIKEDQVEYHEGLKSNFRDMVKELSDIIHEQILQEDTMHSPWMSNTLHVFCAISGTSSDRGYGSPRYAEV
UniProt O43598: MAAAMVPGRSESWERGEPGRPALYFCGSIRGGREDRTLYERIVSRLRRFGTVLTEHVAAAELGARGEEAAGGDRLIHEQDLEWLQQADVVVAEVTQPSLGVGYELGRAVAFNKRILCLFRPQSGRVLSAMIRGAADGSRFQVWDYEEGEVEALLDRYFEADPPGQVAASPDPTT
UniProt Q9UKB3: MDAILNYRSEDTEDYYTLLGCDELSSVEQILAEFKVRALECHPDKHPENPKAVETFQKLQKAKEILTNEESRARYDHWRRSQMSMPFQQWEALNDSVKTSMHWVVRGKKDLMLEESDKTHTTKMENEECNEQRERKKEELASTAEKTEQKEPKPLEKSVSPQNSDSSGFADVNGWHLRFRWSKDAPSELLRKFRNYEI
UniProt Q9H3Z4: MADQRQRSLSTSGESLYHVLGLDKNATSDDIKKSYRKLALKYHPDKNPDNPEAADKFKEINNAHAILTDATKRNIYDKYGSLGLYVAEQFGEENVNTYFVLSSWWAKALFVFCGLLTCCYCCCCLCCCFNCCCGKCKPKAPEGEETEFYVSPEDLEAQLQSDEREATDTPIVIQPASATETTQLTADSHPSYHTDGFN
UniProt Q9NTX5: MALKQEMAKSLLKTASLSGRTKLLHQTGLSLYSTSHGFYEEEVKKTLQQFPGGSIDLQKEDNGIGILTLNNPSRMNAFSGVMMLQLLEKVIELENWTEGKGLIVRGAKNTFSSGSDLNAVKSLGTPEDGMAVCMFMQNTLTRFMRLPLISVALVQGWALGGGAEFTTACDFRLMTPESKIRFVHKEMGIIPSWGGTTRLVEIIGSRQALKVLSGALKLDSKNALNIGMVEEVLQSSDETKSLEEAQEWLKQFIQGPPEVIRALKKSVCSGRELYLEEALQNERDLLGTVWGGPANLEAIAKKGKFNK
UniProt Q9BTV6: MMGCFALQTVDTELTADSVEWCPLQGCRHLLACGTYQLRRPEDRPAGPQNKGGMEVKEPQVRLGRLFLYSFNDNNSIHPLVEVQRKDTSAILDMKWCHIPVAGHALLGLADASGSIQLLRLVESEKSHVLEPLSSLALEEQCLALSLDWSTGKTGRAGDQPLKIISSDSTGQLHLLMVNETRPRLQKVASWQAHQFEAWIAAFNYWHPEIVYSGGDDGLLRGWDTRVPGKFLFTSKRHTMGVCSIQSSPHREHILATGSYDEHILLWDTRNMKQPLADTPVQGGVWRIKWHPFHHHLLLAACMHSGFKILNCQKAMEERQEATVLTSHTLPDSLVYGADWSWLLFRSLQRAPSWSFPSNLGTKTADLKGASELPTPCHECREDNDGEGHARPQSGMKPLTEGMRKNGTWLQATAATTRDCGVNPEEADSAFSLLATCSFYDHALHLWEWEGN
UniProt P42892: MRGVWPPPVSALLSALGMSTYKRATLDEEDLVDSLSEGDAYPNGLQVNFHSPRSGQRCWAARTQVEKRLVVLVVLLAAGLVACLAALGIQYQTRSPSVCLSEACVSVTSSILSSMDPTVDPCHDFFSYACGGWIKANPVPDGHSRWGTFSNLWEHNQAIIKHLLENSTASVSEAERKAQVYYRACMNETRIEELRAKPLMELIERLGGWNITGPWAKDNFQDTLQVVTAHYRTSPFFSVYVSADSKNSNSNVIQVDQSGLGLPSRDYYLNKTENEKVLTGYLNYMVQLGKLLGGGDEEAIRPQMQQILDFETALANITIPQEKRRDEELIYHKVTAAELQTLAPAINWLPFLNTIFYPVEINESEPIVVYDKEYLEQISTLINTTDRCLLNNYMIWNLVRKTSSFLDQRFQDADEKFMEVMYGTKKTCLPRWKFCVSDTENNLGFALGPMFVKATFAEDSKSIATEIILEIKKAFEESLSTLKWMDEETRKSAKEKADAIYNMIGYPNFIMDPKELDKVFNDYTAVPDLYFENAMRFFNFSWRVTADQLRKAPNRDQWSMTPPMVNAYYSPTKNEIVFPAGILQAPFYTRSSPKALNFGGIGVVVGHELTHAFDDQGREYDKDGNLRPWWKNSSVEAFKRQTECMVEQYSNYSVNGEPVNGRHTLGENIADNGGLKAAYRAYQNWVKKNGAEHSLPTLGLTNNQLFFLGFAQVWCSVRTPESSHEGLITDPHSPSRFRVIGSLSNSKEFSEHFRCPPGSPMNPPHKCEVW
UniProt Q9NP97, whole entry, looked up: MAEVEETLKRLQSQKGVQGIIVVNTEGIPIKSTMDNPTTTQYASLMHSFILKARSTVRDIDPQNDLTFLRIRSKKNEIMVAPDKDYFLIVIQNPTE

Columns and labels:
Test in all cases: log2 fold change, soluble protein after heating vs DMSO (PISA); higher = thermal stabilisation; K562 cells, 10 uM, 30 min; active = over 0.2 and 3.5 SD of the protein, either way, in both replicates (recomputed)
[1] = compound: CC[C@@H]1C(=O)N(C)c2cnc(Nc3ccc(C(=O)NC4CCN(C)CC4)cc3OC)nc2N1C1CCCC1
How it was run: (§1)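 K562 cells at 2×10^6 cells/mL were treated with 10 μM compound for 30 min. Aliquots were heated for 3 min across 48°C-58°C, pooled, and extracted in PBS with 0.5% NP-40 at 4°C; soluble protein was the supernatant after 21,000xg for 90 min. Soluble protein was quantified by TMTpro 16plex LC-MS/MS with channel sums equalised, and reported as log2 fold change in thermal stability against DMSO controls, with values from duplicates.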

volasertib = compound: CC[C@@H]1C(=O)N(C)c2cnc(Nc3ccc(C(=O)N[C@H]4CC[C@H](N5CCN(CC6CC6)CC5)CC4)cc3OC)nc2N1C(C)C [volasertib]
How it was run: as §1

[2] = compound: CC[C@H](C)N1C=C(C2=C(C=C(C=C21)C3=CN=C(C=C3)N4CCNCC4)C(=O)NCC5=C(C=C(NC5=O)C)C)C
How it was run: as §1

epoxomicin = compound: CC[C@H](C)[C@@H](C(=O)N[C@@H]([C@@H](C)O)C(=O)N[C@@H](CC(C)C)C(=O)[C@]1(CO1)C)NC(=O)[C@H]([C@@H](C)CC)N(C)C(=O)C [epoxomicin]
How it was run: as §1

[3] = compound: CCn1c(C(=O)N(C2CC2)C2CC2)cc2c3c(ncn3C)c(Nc3cc(C)n(C)n3)nc21
How it was run: as §1

[4] = compound: CCn1cc(-c2ccnc3[nH]c(-c4cccc(CN(C)C)c4)cc23)c(-c2ccc(NC(=O)N(C)C)cc2)n1
How it was run: as §1

[5] = compound: CN(C)CC(=O)Nc1ccc2[nH]c(=O)c3ccccc3c2c1
How it was run: as §1

rosiglitazone = compound: CN(CCOC1=CC=C(C=C1)C[C@H]2C(=O)NC(=O)S2)C3=CC=CC=N3 (racemic) [rosiglitazone]
How it was run: as §1

[6] = compound: CN1C2=C(C3=C1C(=O)N(N=C3)CC4=CC(=CC=C4)N)SC(=C2)S(=O)C
How it was run: as §1

[7] = compound: CN1CCC(CNc2ccc3ncc(-c4cccc(OC(F)(F)F)c4)n3n2)CC1
How it was run: as §1

Measured: log2 fold change

DPH2 (UniProt Q9BQC3)
inactive: [1] 0.002 | volasertib -0.033 | [2] 0.038 | epoxomicin 0.069 | [3] 0.019 | [4] 0.07 | [5] -0.002 | rosiglitazone 0.011 | [6] -0.006 | [7] -0.044

ECI2 (UniProt O75521)
inactive: [1] -0.003 | volasertib -0.039 | [2] -0.008 | epoxomicin -0.013 | [3] -0.029 | [4] -0.014 | [5] 0.005 | rosiglitazone 0.007 | [6] -0.081 | [7] -0.034

DNAJC13 (UniProt O75165)
inactive: [1] -0.07 | volasertib -0.322 | [2] 0.029 | epoxomicin -0.026 | [3] -0.039 | [4] 0.033 | [5] 0.004 | rosiglitazone 0.028 | [6] 0.076 | [7] -0.084

DUSP3 (UniProt P51452)
inactive: [1] -0.012 | volasertib -0.141 | [2] -0.063 | epoxomicin 0.038 | [3] -0.028 | [4] -0.073 | [5] 0.031 | rosiglitazone 0.02 | [6] -0.108 | [7] 0.011

EBAG9 isoform 2 (UniProt O00559)
inactive: [1] -0.057 | volasertib -0.075 | [2] -0.096 | epoxomicin -0.017 | [3] -0.032 | [4] -0.039 | [5] -0.016 | rosiglitazone -0.039 | [6] 0.238 | [7] -0.056

DRG2 (UniProt P55039)
inactive: [1] 0.014 | volasertib -0.083 | [2] 0.032 | epoxomicin 0.011 | [3] 0.001 | [4] 0.012 | [5] 0.013 | rosiglitazone 0.022 | [6] -0.021 | [7] -0.034

EDEM1 (UniProt Q92611)
inactive: [1] 0.029 | volasertib -0.076 | [2] -0.014 | epoxomicin 0.045 | [3] 0.046 | [4] -0.077 | [5] -0.155 | rosiglitazone -0.05 | [6] 0.128 | [7] 0.002

DNAJC11 (UniProt Q9NVH1)
inactive: [1] -0.009 | volasertib -0.099 | [2] 0.023 | epoxomicin 0.028 | [3] -0.004 | [4] -0.061 | [5] 0.013 | rosiglitazone 0.02 | [6] -0.077 | [7] 0.021

DPH6 (UniProt Q7L8W6)
inactive: [1] -0.139 | volasertib -0.191 | [2] 0.069 | epoxomicin 0.049 | [3] -0.025 | [4] -0.102 | [5] 0.022 | rosiglitazone 0.007 | [6] -0.015 | [7] 0.006

DNAJC16 (UniProt Q9Y2G8)
inactive: [1] 0.117 | volasertib 0.032 | [2] -0.024 | epoxomicin 0.202 | [3] -0.014 | [4] 0.029 | [5] 0.015 | rosiglitazone -0.054 | [6] -0.058 | [7] 0.044

DNM1L isoform 6 (UniProt O00429)
inactive: [1] -0.017 | volasertib -0.08 | [2] 0 | epoxomicin 0.042 | [3] 0.026 | [4] -0.036 | [5] -0.015 | rosiglitazone 0.023 | [6] -0.053 | [7] -0.186

DOCK11 (UniProt Q5JSL3)
inactive: [1] 0.016 | volasertib -0.104 | [2] 0.051 | epoxomicin -0.042 | [3] -0.058 | [4] -0.009 | [5] 0.041 | rosiglitazone 0.035 | [6] 0.052 | [7] -0.001

DNASE2 (UniProt O00115)
inactive: [1] -0.134 | volasertib -0.064 | [2] -0.027 | epoxomicin 0.016 | [3] 0.041 | [4] 0.018 | [5] -0.049 | rosiglitazone -0.022 | [6] -0.044 | [7] -0.054

DPP3 (UniProt Q9NY33)
inactive: [1] -0.017 | volasertib -0.013 | [2] 0.066 | epoxomicin -0.003 | [3] -0.01 | [4] -0.113 | [5] 0.022 | rosiglitazone 0.07 | [6] -0.126 | [7] -0.183

ECHS1 (UniProt P30084)
inactive: [1] -0.041 | volasertib -0.06 | [2] 0.052 | epoxomicin -0.005 | [3] 0.003 | [4] -0.131 | [5] 0.026 | rosiglitazone 0.013 | [6] -0.134 | [7] 0.058

DNPH1 (UniProt O43598)
inactive: [1] -0.031 | volasertib 0.053 | [2] -0.051 | epoxomicin 0.013 | [3] 0.013 | [4] -0.02 | [5] -0.011 | rosiglitazone -0.019 | [6] -0.05 | [7] 0.009

Two consecutive entries out of the list so far, for reference:
DOCK11 (UniProt Q5JSL3)
inactive: [1] 0.016 | volasertib -0.104 | [2] 0.051 | epoxomicin -0.042 | [3] -0.058 | [4] -0.009 | [5] 0.041 | rosiglitazone 0.035 | [6] 0.052 | [7] -0.001

DNASE2 (UniProt O00115)
inactive: [1] -0.134 | volasertib -0.064 | [2] -0.027 | epoxomicin 0.016 | [3] 0.041 | [4] 0.018 | [5] -0.049 | rosiglitazone -0.022 | [6] -0.044 | [7] -0.054

The results go on:

DNAJC12 (UniProt Q9UKB3)
inactive: [1] -0.061 | volasertib -0.075 | [2] -0.04 | epoxomicin 0.052 | [3] 0.024 | [4] -0.001 | [5] 0.056 | rosiglitazone 0.018 | [6] -0.066 | [7] 0.039

DNAJC5 (UniProt Q9H3Z4)
inactive: [1] 0.063 | volasertib 0.132 | [2] -0.054 | epoxomicin -0.04 | [3] 0 | [4] 0.029 | [5] -0.032 | rosiglitazone -0.014 | [6] -0.088 | [7] 0.172

EDEM3 (UniProt Q9BZQ6)
inactive: [1] 0.033 | volasertib -0.042 | [2] 0.003 | epoxomicin -0.011 | [3] 0.029 | [4] -0.002 | [5] -0.048 | rosiglitazone -0.054 | [6] 0.024 | [7] 0.009

DST (UniProt Q03001)
inactive: [1] 0.046 | volasertib 0.166 | [2] -0.179 | epoxomicin -0.222 | [3] -0.063 | [4] -0.034 | [5] -0.054 | rosiglitazone 0.055 | [6] 0.063 | [7] -0.085

ECHDC1 (UniProt Q9NTX5)
inactive: [1] 0.048 | volasertib 0.081 | [2] -0.031 | epoxomicin -0.018 | [3] 0.012 | [4] 0.048 | [5] -0.028 | rosiglitazone -0.003 | [6] -0.028 | [7] 0.003

DRG1 (UniProt Q9Y295)
inactive: [1] 0.083 | volasertib 0.118 | [2] -0.006 | epoxomicin -0.036 | [3] 0.011 | [4] 0.011 | [5] -0.032 | rosiglitazone -0.026 | [6] 0.046 | [7] 0.093

DPP9 isoform 2 (UniProt Q86TI2)
inactive: [1] 0.02 | volasertib 0.034 | [2] 0.072 | epoxomicin -0.05 | [3] -0.013 | [4] -0.103 | [5] 0.034 | rosiglitazone 0.053 | [6] -0.053 | [7] -0.204

DOCK11, A0A0J9YW64
inactive: [1] -0.257

DPH7 (UniProt Q9BTV6)
inactive: [1] 0.107 | volasertib 0.004 | [2] 0.02 | epoxomicin -0.047 | [3] -0.017 | [4] 0.007 | [5] 0.008 | rosiglitazone 0.005 | [6] -0.15 | [7] -0.04

DNAJC17 (UniProt Q9NVM6)
inactive: [1] -0.003 | volasertib 0.041 | [2] 0.001 | epoxomicin 0.003 | [3] -0.089 | [4] -0.055 | [5] 0.027 | rosiglitazone -0.013 | [6] -0.036 | [7] -0.038

ECE1 (UniProt P42892)
inactive: [1] -0.259 | volasertib -0.295 | [2] 0.013 | epoxomicin 0.038 | [3] 0 | [4] -0.109 | [5] -0.055 | rosiglitazone 0.08 | [6] 0.082 | [7] -0.001

DYNLRB1 (UniProt Q9NP97)
inactive: [1] 0.041 | volasertib 0.056 | [2] -0.016 | epoxomicin 0.045 | [3] 0.047 | [4] 0.092 | [5] 0.017 | rosiglitazone -0.024 | [6] -0.014 | [7] 0.007
